In PubChem BioAssay AID2685 (National Center for Advancing Translational Sciences (NCATS), 2010):
Values joined by “and” are separate entries in the source; they are usually repeats but may differ in a detail not shown here. Equal values may be shown once. In all, about 320,000 compounds went through this assay and about 2,100 (0.66%) were called active. Inconclusive results, whose numbers are uncertain, are shown with a selection of clear calls. Calls come from the whole dose curve; as a rule, active = well fitted inhibition curve with a large enough effect in the signal ratio, with a control signal flat (not every such curve was filed as active); inconclusive = small, poorly fitted or top-dose-only effect, or effect the other way, or a change in a side signal; inactive = flat fitted curve, though single readings scatter; the % refers to the signal ratio. A potency beside an inconclusive call is a rough fit, not a confirmed value.

Test: qHTS Assay for Lipid Storage Modulators in Drosophila S3 Cells
Settings: BODIPY lipid droplet fluorescence, 18-24 h, cells fed with added oleic acid; lipid storage change, negative = inhibition: at 46.1 µM (top of the series) unless noted
Procedure, shortened: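 Drosophila S3 cells loaded with oleic acid (400 uM, as added) and compounds at several concentrations; lipid droplets imaged by 488-nm laser-scanning cytometry, 500–530 nm intensity and object ratio to cell channel. Percent activity normalized to 20 uM Triacsin C.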
% is set by controls: 0 for no effect and ±100 for the full control effect; potency is the fitted concentration of half-maximal effect.

| SMILES | lipid storage change, negative = inhibition | Potency |
| --- | --- | --- |
| CC(=O)c1cccc(NC(=O)N2CCCC2C(=O)NCCC(C)C)c1 (centres undefined) | inconclusive: 30.3% |  |
| CCOc1ccc(CN(C)CC(=O)NCc2ccc(F)cc2)cc1 | inconclusive: 10.8% |  |
| Nc1nc(SCC(=O)Nc2ncc(C(F)(F)F)cc2Cl)n[nH]1 | inconclusive: 10.8% |  |
| CCCC[C@]12Cc3cc(C#N)ccc3C(O1)c1c(cc(C)n(-c3ccccc3)c1=O)O2 |  | inconclusive: 1.19 µM [activator, single point] |
| Cc1oc2cc(O)ccc2c(=O)c1-c1ccccc1 | inconclusive: 9.06% |  |
| COc1ccc(C(=O)N/N=C/c2cc(Br)ccc2O)cc1OC | inconclusive: 2.96% |  |
| CC(=O)Nc1ccc(C(=O)OCC(=O)c2ccc(S(=O)(=O)N3CCCCC3)cc2)cc1 | inconclusive: 42.3% |  |
| Clc1ccc(Cn2nnc(-c3ccc(CN4CCOCC4)cc3)n2)cc1 | inconclusive: 60.5% |  |
| Cc1ccc(CN(C)C(=O)CN2C(=O)NC(c3ccccc3)(c3ccccc3)C2=O)c(C)c1 | inconclusive: -47% |  |
| CCn1c(COc2ccccc2OC)nc2ccccc21 |  | inconclusive: 0.0146 µM [activator, full curve, poor fit] |
| Cc1cccn2c(=O)c3cc(C(=O)NCCN4CCOCC4)c(=N)n(Cc4cccnc4)c3nc12 | inconclusive: 64% |  |
| c1csc(-c2nnc(NC3CCCCC3)c3ccccc23)c1 | inconclusive: -11% |  |
| COc1cccc(OCc2ccc(C(=O)NCC3CCCO3)cc2)c1 (centres undefined) | inconclusive: 3.22% |  |
| NCCCC(=O)O | inconclusive: -23.9% |  |
| N#Cc1c(-n2cccc2)cccc1-n1cccc1 | inconclusive: 6.94% |  |
| CCOC(=O)c1cnn(CCOC(=O)c2ccc(OC)cc2)c1NC(=O)c1ccc(OC)cc1 | inconclusive: -0.952% |  |
| CC(=O)Nc1ccc(S(=O)(=O)NC(CC(=O)NCCC2=CCCCC2)C(C)C)cc1 (centres undefined) | inconclusive: 4.14% |  |
| COc1ccc(OC)c(CC(NC(C)=O)C(=O)NC2CCN(C(=O)c3cccc(C)c3)CC2)c1 (centres undefined) | inconclusive: 40.4% |  |
| Cc1c(C)n2c(SCC(=O)N3CC(C)OC(C)C3)nnc2[nH]c1=O (centres undefined) | inconclusive: -16.4% |  |
| COc1ccc(OCc2cc(C(=O)NCC(C)Oc3cccnc3)no2)c(Cl)c1 (centres undefined) | inconclusive: -20.3% |  |
| COc1cc2[nH]c(=O)n(Cc3ccc(C(=O)N4CCC(N5CCCCC5)CC4)cc3)c(=O)c2cc1OC |  | active: 0.411 µM |
| Cc1ccc(S(=O)(=O)N(CC(O)CN2CCOCC2)c2cc(Cl)ccc2Cl)cc1 (centres undefined) | inconclusive: -2.73% |  |
| CC(=O)NC12CC3CC(C1)CC(C(=O)Nc1nc4c(C)cccc4s1)(C3)C2 |  | active: 5.8 µM |
| O=C1N(C2CCCC2)C[C@@H]2C[C@@H](c3cn[nH]c3-c3ccc(Cl)cc3)N3CCC[C@@]123 | inconclusive: -25.7% |  |
| COc1ccc(C2=CC(=O)C[C@H](c3ccc(F)cc3)C2)c(F)c1F | inconclusive: -2.75% |  |
| COc1ccc(NC(=O)Cn2c(C(C)C)nc(C)cc2=O)cc1Cl | inconclusive: 10.1% |  |
| COc1ccc(C2=Nn3c(nnc3-c3ccncc3)SC2)cc1 | inconclusive: -4.72% |  |

A different layout for some results above.
SMILES	lipid storage change, negative = inhibition	Potency
Nc1nc(SCC(=O)Nc2ncc(C(F)(F)F)cc2Cl)n[nH]1	inconclusive: 10.8%	
Clc1ccc(Cn2nnc(-c3ccc(CN4CCOCC4)cc3)n2)cc1	inconclusive: 60.5%	
c1csc(-c2nnc(NC3CCCCC3)c3ccccc23)c1	inconclusive: -11%	
COc1ccc(OC)c(CC(NC(C)=O)C(=O)NC2CCN(C(=O)c3cccc(C)c3)CC2)c1 (centres undefined)	inconclusive: 40.4%	

Remaining list, next part

| SMILES | lipid storage change, negative = inhibition | Potency |
| --- | --- | --- |
| NCCc1cnc[nH]1 | inconclusive: -14.8% and inconclusive: 4.16% |  |
| COC(=O)c1ccc(Nc2cc(C)nc(-c3ccccc3O)n2)cc1 | inconclusive: 16.4% |  |
| CN1CCN(C(=O)c2cc(Cl)ccc2Cl)CC1 | inconclusive: -16.8% |  |
| Cc1scc(C(=O)NNC(=S)NCc2ccccc2)c1C | inconclusive: -5.04% |  |
| CCC(C(=O)OCC(=O)Nc1c(C)nn(-c2ccccc2)c1C)c1ccccc1 (centres undefined) |  | inconclusive: 0.651 µM [cytotoxic, single point] |
| CCc1ccc(NC(=O)CCNS(=O)(=O)c2cccs2)cc1 |  | inconclusive: 29.1 µM [activator, single point] |
| C/C=C/C(=O)OCC(=O)Nc1ccc(OC)c(Cl)c1 | inconclusive: 42.5% |  |
| O=C(Cn1nnc(-c2ccccc2)n1)NNC(=O)c1ccccc1 |  | inconclusive: 29.1 µM [activator, single point] |
| Cc1cc(C)nc(Nc2n[nH]c(-c3ccccc3Cl)n2)n1 | inconclusive: 0.0449% |  |
| CCN1CCN(c2ncnc3c2c(-c2ccccc2)cn3-c2ccc(F)cc2)CC1 | inconclusive: -18.6% |  |
| O=C(O)c1ccc(Nc2ccc([N+](=O)[O-])c3nonc23)cc1 | inconclusive: 3.36% |  |
| O=C(CSc1ncn[nH]1)N1c2ccccc2Sc2ccccc21 |  | inconclusive: 29.1 µM [falling, single point] |
| COc1ccc(CN2CCCC(CO)(Cc3cccc(Cl)c3)C2)cc1OC (centres undefined) | inconclusive: 2.48% |  |
| CCc1ccccc1NC(=O)CNC(=O)c1ccccc1OCc1c(C)noc1C |  | inconclusive: 29.1 µM [activator, single point] |
| Cc1ccc(NC(=O)c2sccc2C)cc1[N+](=O)[O-] |  | active: 8.2 µM |
| Nc1ccccc1SCC(=O)Nc1ccc2c(c1)OCO2 | inconclusive: -9.19% |  |
| NC(=O)c1cc(-c2csc(-c3cccnc3)n2)ccc1O |  | active: 25.9 µM |
| COc1ccc(-c2nnn(CC(=O)N(Cc3cccs3)C(C)C(=O)NC3CCCC3)n2)cc1OC (centres undefined) | inconclusive: 27.9% |  |
| Cc1cc(C)c(C)c(S(=O)(=O)N2CCN(CC(=O)c3c(N)n(Cc4ccccc4)c(=O)n(C)c3=O)CC2)c1C | inconclusive: -23.6% |  |
| Cc1cccc(NC(=S)NNc2ncc(C(F)(F)F)cc2Cl)c1 |  | inconclusive: 6.51 µM [activator, single point] |
| O=C(Cc1ccc(-n2c(=O)c3sccc3n(Cc3ccc(F)cc3)c2=O)cc1)NCc1ccco1 | inconclusive: -47.8% |  |
| CN(C)c1ccc(N2C(=O)CC(Sc3ccccc3C(=O)O)C2=O)cc1 (centres undefined) | inconclusive: -24.1% |  |
| CCCCOCCCNCc1cccn1CCN1CCOCC1 | inconclusive: 12.8% |  |
| CCN=C1S/C(=C\c2ccc(OC)c(OCC)c2)C(=O)N1CC | inconclusive: -0.261% |  |
| CCc1cc2cc3c(cc2nc1SCC(=O)N1CCN(C(=O)c2ccco2)CC1)OCO3 | inconclusive: 16.2% |  |
| CC1(C)Cc2c(C#N)c(SCc3ccccc3)nc(N3CCOCC3)c2CO1 | inconclusive: -17.4% |  |
| O=C(NCCN1C(=O)C2C3C=CC(C3)C2C1=O)Nc1ccccc1 (centres undefined) | inconclusive: 22.4% |  |

| SMILES | lipid storage change, negative = inhibition | Potency |
| --- | --- | --- |
| Cc1ccc(C(C)C)c(OCC(=O)Nc2ccccc2N2CCN(C)CC2)c1 |  | inconclusive: 6.51 µM [cytotoxic, single point] |
| CCOc1ccc(-c2cc(C(=O)N3CCCC3)c3ccccc3n2)cc1 | inconclusive: 0.392% |  |
| Cc1cccn2c(=O)c3cc(C(=O)NC4CCCC4)c(=N)n(CCCN4CCOCC4)c3nc12 |  | inconclusive: 29.1 µM [falling, single point] |
| Cc1cc2c(=O)n(CC(=O)NCC(=O)N3CCN(Cc4ccccc4)CC3)cnc2s1 |  | inconclusive: 25.9 µM [falling, partial curve, poor fit] |
| COC(=O)c1nnn(CC(=O)Nc2cc(Cl)ccc2C)c1C(=O)OC |  | inconclusive: 16.4 µM [activator, single point] |
| CCOc1ccc(NC(=O)CN2CCc3ccccc3C2)cc1 |  | inconclusive: 0.58 µM [activator, full curve] |
| O=c1oc2ccccc2nc1/C=C(O)/C=C/c1ccc(F)cc1 | inconclusive: -20.8% |  |
| COC(=O)c1sc(C(F)(F)F)c(-c2ccccc2)c1S(=O)(=O)N(C)C | inconclusive: -13.4% |  |
| CC(=NC1CCN(Cc2ccccc2)CC1)c1c(O)[nH]c(=O)[nH]c1=O | inconclusive: -4.87% |  |
| Cc1c(NCc2cccnc2)cccc1C(=O)O | inconclusive: 42.5% |  |
| COC(=O)c1sc2nc(C)nc(SCC(=O)N3CCC(C(=O)O)CC3)c2c1C |  | inconclusive: 29.1 µM [rising, single point] |
| CC(NC(=O)C(NS(=O)(=O)c1cccc2nsnc12)C(C)C)c1ccccc1 (centres undefined) | inconclusive: -13.6% |  |
| COc1ccccc1C(=O)NCC(=O)OCC(=O)N(CC(C)C)c1c(N)n(Cc2ccccc2)c(=O)[nH]c1=O |  | inconclusive: 6.51 µM [falling, single point] |
| COc1cccc(CNS(=O)(=O)c2ccc3c(c2)N(C(C)=O)CCS3)c1 | inconclusive: 40.8% |  |
| COC(=O)COc1ccc(S(=O)(=O)N2CCOCC2)cc1 | inconclusive: -6.71% |  |
| Cc1ncsc1CCC(=O)N1CCCC(Nc2ccc(F)c(F)c2)C1 (centres undefined) |  | inconclusive: 2.59 µM [activator, full curve, poor fit] |
| COc1cccc(OC)c1C(=O)N1CCN(Cc2cccnc2)CC1 | inconclusive: 17.2% |  |
| COc1ccc(C2=NCCn3cccc32)c(OC)c1 | inconclusive: -11.5% |  |
| CCOCCCNc1nc(-c2ccccc2)nc2ccccc12 |  | active: 4.61 µM |
| O=C(CCC1CCCN(Cc2cccc(Cl)c2)C1)NCc1ccccc1F (centres undefined) | inconclusive: 19.1% |  |
| Cn1nccc1C(=O)NC(=S)Nc1cc(Cl)cc(Cl)c1 | inconclusive: -158% |  |
| Cn1c(N)c(C(=O)COC(=O)c2ccc(Cl)c(S(=O)(=O)N3CCCC3)c2)c(=O)n(C)c1=O | inactive: -8.77% |  |
| Cc1ccn(S(=O)(=O)c2ccc(C(C)(C)C)cc2)n1 | inconclusive: 15.8% |  |
| CC(=O)Nc1ccc(NC(=O)CN(C)S(=O)(=O)c2ccc3ccccc3c2)cc1 |  | inconclusive: 29.1 µM [activator, single point] |
| Cc1cc(Cl)cc(Cl)c1OCC(=O)NCc1ccco1 | inconclusive: 12.1% |  |
